{
  "sequences": {"note": "The chains behind the UniProt entries cited, without tags or fusion partners. Residues count along the entry.", "UniProt P43220, 24-463": "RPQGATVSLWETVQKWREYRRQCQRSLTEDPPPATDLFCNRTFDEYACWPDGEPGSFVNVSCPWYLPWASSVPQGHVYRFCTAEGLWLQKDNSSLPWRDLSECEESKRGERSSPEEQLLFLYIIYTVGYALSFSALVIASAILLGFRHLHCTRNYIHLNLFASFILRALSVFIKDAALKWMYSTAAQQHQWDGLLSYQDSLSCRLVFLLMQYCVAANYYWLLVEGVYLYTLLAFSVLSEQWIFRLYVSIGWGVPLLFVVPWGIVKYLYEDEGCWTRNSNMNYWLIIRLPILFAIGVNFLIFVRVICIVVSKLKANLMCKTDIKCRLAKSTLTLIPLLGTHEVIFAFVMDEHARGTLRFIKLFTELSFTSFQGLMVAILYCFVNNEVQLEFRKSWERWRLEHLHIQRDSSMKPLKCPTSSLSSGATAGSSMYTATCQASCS"},
  "source": "patent US20240067702A1",
  "about": "“LACTAM-MODIFIED P[…]” (DONGBAO PURPLE STAR (HANGZHOU) BIOPHARMACEUTICAL CO., LTD., priority 2020, published 2024)",
  "key": {"[1]": {"target": "T1, GLP-1R (Homo sapiens, UniProt P43220)", "T1 construct": "host or cells: HEK293", "assay": "GLP-1R agonist activity test in vitro (cAMP assay)", "type": "cell-based", "details": "ratio (+) 1% HSA / (−) 1% HSA", "experimental": "(§1) The cell strains were constructed by Shanghai WuXi AppTec.\n(§2) The test compound was serially diluted 4-fold with 10 points. The initial concentration was 30 μM, and the dilution was completed with Bravo.\n(§3) 1) 100 nL of the compound was transferred to OptiPlate-384 plate using Echo.\n(§4) 7) The GLP-1R/GIPR cell concentration was diluted to 2.0*10^5/mL with the experimental buffer.\n(§5) 8) […] of the diluted cell suspension was transferred into the OptiPlate-384 plate.\n(§6) 9) The diluted cell suspension was incubated at room temperature for 30 minutes.\n(§7) 2) 10 μL of cAMP detection reagent was added.\n(§8) 3) The OptiPlate-384 plate was covered with TopSeal-A film and incubated at room temperature for 60 minutes.\n(§9) TopSeal-A was removed and read in EnVision."}, "[2]": {"target": "T2, GIPR (Homo sapiens, UniProt P48546)", "T2 construct": "host or cells: CHO", "T2 sequence (P48546 22-466)": "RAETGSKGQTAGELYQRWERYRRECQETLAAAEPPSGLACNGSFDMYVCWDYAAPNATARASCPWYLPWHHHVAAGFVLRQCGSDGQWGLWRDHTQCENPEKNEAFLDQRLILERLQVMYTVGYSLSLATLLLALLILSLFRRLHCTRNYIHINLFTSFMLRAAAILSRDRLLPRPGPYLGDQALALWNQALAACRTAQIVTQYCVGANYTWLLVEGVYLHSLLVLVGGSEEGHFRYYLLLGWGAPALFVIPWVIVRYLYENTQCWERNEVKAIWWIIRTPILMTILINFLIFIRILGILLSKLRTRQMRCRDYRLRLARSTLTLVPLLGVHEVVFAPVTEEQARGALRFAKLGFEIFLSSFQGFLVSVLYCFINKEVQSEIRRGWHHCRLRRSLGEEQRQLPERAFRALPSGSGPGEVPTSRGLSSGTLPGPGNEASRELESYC", "assay": "GIPR agonist activity test in vitro (cAMP assay)", "type": "cell-based", "details": "ratio (+) 1% HSA / (−) 1% HSA", "experimental": "as §1, §2, §3, §4, §5, §6, §7, §8, §9"}, "[3]": {"tested_on": "normal mice", "assay": "Intraperitoneal glucose tolerance test (ipGTT) in mice", "type": "in vivo", "details": "0.3 nmol/kg, glucose 2 g/kg i.p. after 18 hours, vehicle 1916"}, "[4]": {"tested_on": "DIO mice", "assay": "In vivo pharmacodynamic evaluation in DIO mice", "details": "10 nmol/kg SC once every three days; for Δ Body weight % (after 22 days compared with day 1): vehicle 0.2%; for Δ Adipose tissue % (after 22 days compared to day 1): vehicle 2%; for Δ Non-adipose tissue % (after 22 days compared with day 1): vehicle −3%"}, "[5]": {"tested_on": "type II diabetic db/db mice", "assay": "In vivo pharmacodynamic evaluation in db/db mice", "details": "15 nmol/kg SC once a day for 4 weeks, vehicle 15%"}},
  "note": "For some of these results: At least one peptide structure holds a part that was inferred or is arguable (an end, a ring closure or a residue). At least one structure is not confirmed: it was looked up by name or label, or the drawing left a doubt. *1 amine or outer side, *2 acyl side, *3 side chain or, on linkers, in order; H or OH if unused. Where a SMILES comes first, the peptide text is derived from it. Bridges are numbered along the chain shown (N, C = ends). Side-chain parts run from the residue outwards. [ ]: non-standard residue; d: D form. The star is where a group is joined. C20 diacid = O=C(O)CCCCCCCCCCCCCCCCCCC(=O)*; γGlu = O=C(O)[C@H](CCC(=O)[*:2])N[*:1]; AEEA = NCCOCCOCC(=O)O; Aib = CC(C)(N)C(=O)O",
  "data": [
    {"molecule": "CC[C@H](C)[C@H](NC(=O)[C@H](CC(C)C)NC(=O)[C@H](Cc1c[nH]c2ccccc12)NC(=O)[C@@H]1CCC(=O)NCCCC[C@H](NC(=O)[C@H](CCC(N)=O)NC(=O)[C@H](C)NC(=O)[C@H](CCCCNC(=O)COCCOCCNC(=O)COCCOCCNC(=O)CC[C@H](NC(=O)CCCCCCCCCCCCCCCCCCC(=O)O)C(=O)O)NC(=O)[C@H](CCCCN)NC(=O)[C@H](CC(=O)O)NC(=O)[C@H](CC(C)C)NC(=O)C(C)(C)NC(=O)[C@@H](NC(=O)[C@H](CO)NC(=O)[C@H](Cc2ccc(O)cc2)NC(=O)[C@H](CC(=O)O)NC(=O)[C@H](CO)NC(=O)[C@@H](NC(=O)[C@H](Cc2ccccc2)NC(=O)[C@@H](NC(=O)CNC(=O)[C@H](CCC(=O)O)NC(=O)C(C)(C)NC(=O)[C@@H](N)Cc2ccc(O)cc2)[C@@H](C)O)[C@@H](C)O)[C@@H](C)CC)C(=O)N[C@@H](C)C(=O)N[C@@H](Cc2ccccc2)C(=O)N[C@@H](C(C)C)C(=O)N1)C(=O)N[C@@H](C)C(=O)NCC(=O)NCC(=O)N1CCC[C@H]1C(=O)N[C@@H](CO)C(=O)N[C@@H](CO)C(=O)NCC(=O)N[C@@H](C)C(=O)N1CCC[C@H]1C(=O)N1CCC[C@H]1C(=O)N1CCC[C@H]1C(=O)N[C@@H](CO)C(N)=O", "note": "[WX-001] (H-Y[Aib]EGTFTSDYSI[Aib]LDKK([AEEA-AEEA-γGlu-C20 diacid])AQKAFVEWLIAGGPSSGAPPPS-NH2; lactam 20-24)", "values": [
      {"measurement": "GLP-IR Agonist Activity EC50 Ratio", "setting": "[1]", "value": 265},
      {"measurement": "GIPR Agonist Activity EC50 Ratio", "setting": "[2]", "value": 53},
      {"measurement": "Blood glucose AUC0-120 min", "setting": "[3]", "value": 1277, "unit": "mmol·min"},
      {"measurement": "Δ Body weight % (after 22 days compared with day 1)", "setting": "[4]", "value": "−29", "unit": "%"},
      {"measurement": "Δ Adipose tissue % (after 22 days compared to day 1)", "setting": "[4]", "value": "−54", "unit": "%"},
      {"measurement": "Δ Non-adipose tissue % (after 22 days compared with day 1)", "setting": "[4]", "value": "−11", "unit": "%"},
      {"measurement": "ΔHbA1c % (compared with Day 1 after four weeks of continuous administration)", "setting": "[5]", "value": "−28", "unit": "%"}
    ]},
    {"molecule": "CC[C@H](C)[C@H](NC(=O)[C@H](CC(C)C)NC(=O)[C@H](Cc1c[nH]c2ccccc12)NC(=O)[C@@H]1CCC(=O)NCCCC[C@H](NC(=O)[C@H](CCC(N)=O)NC(=O)[C@H](C)NC(=O)[C@H](CCCCNC(=O)COCCOCCNC(=O)COCCOCCNC(=O)CC[C@H](NC(=O)CC[C@H](NC(=O)CCCCCCCCCCCCCCCCCCC(=O)O)C(=O)O)C(=O)O)NC(=O)[C@H](CCCCN)NC(=O)[C@H](CC(=O)O)NC(=O)[C@H](CC(C)C)NC(=O)C(C)(C)NC(=O)[C@@H](NC(=O)[C@H](CO)NC(=O)[C@H](Cc2ccc(O)cc2)NC(=O)[C@H](CC(=O)O)NC(=O)[C@H](CO)NC(=O)[C@@H](NC(=O)[C@H](Cc2ccccc2)NC(=O)[C@@H](NC(=O)CNC(=O)[C@H](CCC(=O)O)NC(=O)C(C)(C)NC(=O)[C@@H](N)Cc2ccc(O)cc2)[C@@H](C)O)[C@@H](C)O)[C@@H](C)CC)C(=O)N[C@@H](C)C(=O)N[C@@H](Cc2ccccc2)C(=O)N[C@@H](C(C)C)C(=O)N1)C(=O)N[C@@H](C)C(=O)NCC(=O)NCC(=O)N1CCC[C@H]1C(=O)N[C@@H](CO)C(=O)N[C@@H](CO)C(=O)NCC(=O)N[C@@H](C)C(=O)N1CCC[C@H]1C(=O)N1CCC[C@H]1C(=O)N1CCC[C@H]1C(=O)N[C@@H](CO)C(N)=O", "note": "[WX-002] (H-Y[Aib]EGTFTSDYSI[Aib]LDKK([AEEA-AEEA-γGlu-γGlu-C20 diacid])AQKAFVEWLIAGGPSSGAPPPS-NH2; lactam 20-24)", "values": [
      {"measurement": "Blood glucose AUC0-120 min", "setting": "[3]", "value": 1150, "unit": "mmol·min"},
      {"measurement": "Δ Body weight % (after 22 days compared with day 1)", "setting": "[4]", "value": "−26", "unit": "%"},
      {"measurement": "Δ Adipose tissue % (after 22 days compared to day 1)", "setting": "[4]", "value": "−48", "unit": "%"},
      {"measurement": "Δ Non-adipose tissue % (after 22 days compared with day 1)", "setting": "[4]", "value": "−10", "unit": "%"},
      {"measurement": "ΔHbA1c % (compared with Day 1 after four weeks of continuous administration)", "setting": "[5]", "value": "−21", "unit": "%"}
    ]},
    {"molecule": "CC[C@H](C)[C@H](NC(=O)[C@H](CC(C)C)NC(=O)[C@H](Cc1c[nH]c2ccccc12)NC(=O)[C@@H]1CCC(=O)NCCCC[C@H](NC(=O)[C@H](CCC(N)=O)NC(=O)[C@H](C)NC(=O)[C@H](CCCCNC(=O)COCCOCCNC(=O)COCCOCCNC(=O)CC[C@H](NC(=O)CCCCCCCCCCCCCCCCCCC(=O)O)C(=O)O)NC(=O)[C@H](CCCCN)NC(=O)[C@H](CC(=O)O)NC(=O)[C@H](CC(C)C)NC(=O)C(C)(C)NC(=O)[C@@H](NC(=O)[C@H](CO)NC(=O)[C@H](Cc2ccc(O)cc2)NC(=O)[C@H](CC(=O)O)NC(=O)[C@H](CO)NC(=O)[C@@H](NC(=O)[C@H](Cc2ccccc2)NC(=O)[C@@H](NC(=O)CNC(=O)[C@H](CCC(=O)O)NC(=O)C(C)(C)NC(=O)[C@@H](N)Cc2ccc(O)cc2)[C@@H](C)O)[C@@H](C)O)[C@@H](C)CC)C(=O)N[C@@H](CCC(=O)O)C(=O)N[C@@H](Cc2ccccc2)C(=O)N[C@@H](C(C)C)C(=O)N1)C(=O)N[C@@H](C)C(=O)NCC(=O)NCC(=O)N1CCC[C@H]1C(=O)N[C@@H](CO)C(=O)N[C@@H](CO)C(=O)NCC(=O)N[C@@H](C)C(=O)N1CCC[C@H]1C(=O)N1CCC[C@H]1C(=O)N1CCC[C@H]1C(=O)N[C@@H](CO)C(N)=O", "note": "[WX-005] (H-Y[Aib]EGTFTSDYSI[Aib]LDKK([AEEA-AEEA-γGlu-C20 diacid])AQKEFVEWLIAGGPSSGAPPPS-NH2; lactam 20-24)", "values": [
      {"measurement": "Blood glucose AUC0-120 min", "setting": "[3]", "value": 1143, "unit": "mmol·min"},
      {"measurement": "ΔHbA1c % (compared with Day 1 after four weeks of continuous administration)", "setting": "[5]", "value": "−21", "unit": "%"}
    ]},
    {"molecule": "CC[C@H](C)[C@H](NC(=O)[C@H](CC(C)C)NC(=O)[C@H](Cc1c[nH]c2ccccc12)NC(=O)[C@@H]1CCC(=O)NCCCC[C@H](NC(=O)[C@H](CCC(N)=O)NC(=O)[C@H](C)NC(=O)[C@H](CCCCNC(=O)COCCOCCNC(=O)COCCOCCNC(=O)CC[C@H](NC(=O)CCCCCCCCCCCCCCCCCCC(=O)O)C(=O)O)NC(=O)[C@H](CCCCN)NC(=O)[C@H](CC(=O)O)NC(=O)[C@H](CC(C)C)NC(=O)C(C)(C)NC(=O)[C@@H](NC(=O)[C@H](CO)NC(=O)[C@H](Cc2ccc(O)cc2)NC(=O)[C@H](CC(=O)O)NC(=O)[C@H](CO)NC(=O)[C@@H](NC(=O)[C@H](Cc2ccccc2)NC(=O)[C@@H](NC(=O)CNC(=O)[C@H](CCC(=O)O)NC(=O)C(C)(C)NC(=O)[C@@H](N)Cc2ccc(O)cc2)[C@@H](C)O)[C@@H](C)O)[C@@H](C)CC)C(=O)N[C@@H](C)C(=O)N[C@@H](Cc2ccccc2)C(=O)N[C@@H]([C@@H](C)CC)C(=O)N1)C(=O)N[C@@H](C)C(=O)NCC(=O)NCC(=O)N1CCC[C@H]1C(=O)N[C@@H](CO)C(=O)N[C@@H](CO)C(=O)NCC(=O)N[C@@H](C)C(=O)N1CCC[C@H]1C(=O)N1CCC[C@H]1C(=O)N1CCC[C@H]1C(=O)N[C@@H](CO)C(N)=O", "note": "[WX-006] (H-Y[Aib]EGTFTSDYSI[Aib]LDKK([AEEA-AEEA-γGlu-C20 diacid])AQKAFIEWLIAGGPSSGAPPPS-NH2; lactam 20-24)", "values": [
      {"measurement": "Blood glucose AUC0-120 min", "setting": "[3]", "value": 1164, "unit": "mmol·min"},
      {"measurement": "ΔHbA1c % (compared with Day 1 after four weeks of continuous administration)", "setting": "[5]", "value": "−23", "unit": "%"}
    ]}
  ]
}
